# Results taken from PubChem BioAssay AID504467 (National Center for Advancing Translational Sciences (NCATS), 2011).
# In all, about 330,000 compounds went through this assay and about 7,700 (2.3%) were called active. Inconclusive results, whose numbers are uncertain, are shown with a selection of clear calls. The call rests on the fitted dose curve; in most records, active means well fitted inhibition curve with a large enough effect; inconclusive means small, poorly fitted or top-dose-only effect, or effect the other way; inactive means flat fitted curve, though single readings scatter. Potencies beside an inconclusive call are fits to weak or partial responses and may not hold up.
# Assay: qHTS screen for small molecules that inhibit ELG1-dependent DNA repair in human embryonic kidney (HEK293T) cells expressing luciferase-tagged ELG1; further: nearly all actives have a fitted effect of over 55% in size
# Details: HEK293T ELG1-luciferase reporter, luminescence, 16 h, DNA damage induced by 5-fluorouridine; activity change, negative = inhibition: at 46.1 µM (top of the series)
# How it was run: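 Luminescence from the luciferase reporter, measured 30 min after ONE-Glo reagent at room temperature, was the read-out. Beforehand, 2,000 cells per well were exposed for 16 hr at 37 °C to 5-fluorouridine together with compound or vehicle.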
# On the % scale 0 is the no-effect control and ±100 the full control effect; potency means the concentration at half of the fitted maximal effect.
Compound,"activity change, negative = inhibition",Potency
O=C(COC(=O)CCc1ccc(S(=O)(=O)N2CCOCC2)cc1)Nc1ccccc1[N+](=O)[O-],inactive: 8.06%,–
CCCCNC(=O)N1CCc2ccccc2C1,–,"inconclusive: 20.6 µM [activator, single point]"
O=C1C(=O)N(c2nccs2)C(c2ccccc2F)/C1=C(\O)c1ccc2c(c1)OCCO2 (stereo unspecified),–,"inconclusive: 20.6 µM [activator, single point]"
O=S(=O)(c1ccccc1)N1CCn2c(nc3ccccc32)C1,–,"inconclusive: 8.2 µM [activator, partial curve, poor fit]"
Fc1ccc(C2c3cccn3CCN2C(=S)Nc2cccc(Br)c2)cc1 (stereo unspecified),–,"inconclusive: 20.6 µM [inhibitor, single point]"
S=C(c1ccc(-c2ccc(Cl)cc2Cl)o1)N1CCCCC1,–,"inconclusive: 14.6 µM [activator, partial curve]"
COc1cc2c(cc1OC)[C@H](C)N(C(=O)CSc1nc(O)c(C(C)C)c(=O)[nH]1)CC2,–,"inconclusive: 25.9 µM [inhibitor, single point]"
COc1ccc(C(=O)CSc2nc(-c3ccccn3)nc(C)c2Cl)cc1,–,active: 16.4 µM
O=C(O)c1cc(N/N=C/c2ccc(-c3ccccc3)cc2)ccc1Cl,–,"inconclusive: 0.58 µM [activator, partial curve]"
CCN1C(=O)/C(=C/N(C(C)=O)c2ccccc2)N(c2ccccc2)C1=S,–,"inconclusive: 23.1 µM [activator, partial curve, poor fit]"
O=C(c1ccc2c(=O)n(-c3ccccc3)c(=O)[nH]c2c1)N1CCCCC1,–,"inconclusive: 5.17 µM [inhibitor, partial curve]"
COc1ccccc1/C=C1\SC(=S)N(CCC(=O)NCCCN2CCOCC2)C1=O,inactive: -9.21%,–
Cc1ccc(NC(=O)c2cc(S(=O)(=O)NCCc3ccccc3)ccc2F)cc1Cl,inactive: -25.3%,–
CCOC(=O)C1=C(C)Nc2ccccc2N=C1NC(=O)c1ccc(Cl)c(S(=O)(=O)N2CCCC2)c1,–,"inconclusive: 14.6 µM [inhibitor, partial curve]"
N/C(=N\OS(=O)(=O)c1ccccc1)c1cccnc1,–,"inconclusive: 29.1 µM [activator, partial curve, poor fit]"
COc1ccccc1COC(=O)N/C=C/c1ccco1,inactive: 4.05%,–
CCn1nc(C)cc1C(=O)Sc1ccc(C)cc1,inactive: 0.327%,–
Cc1c(C(=O)N2CCCC2)oc2ccc(Br)cc12,–,"inconclusive: 11.6 µM [activator, partial curve]"
CCOC(=O)N1CCN(C(=S)NC(=O)c2nn(C)cc2Br)CC1,inactive: 9.79%,–
CN(C)c1ccc(C(CNS(=O)(=O)c2ccc([N+](=O)[O-])cc2)N2CCOCC2)cc1 (stereo unspecified),inactive: 4.58%,–
O=C(Nc1cccc(F)c1)Nc1ccc2c(c1)CCC2,–,"inconclusive: 2.59 µM [activator, full curve]"
COc1ccc(-c2[nH]ncc2CN2CCC(C(=O)N3CCOCC3)CC2)c(F)c1,inactive: 4.28%,–
CCCCOc1cccc(C(=O)Nc2ccc(NC(=O)c3ccco3)cc2)c1,inactive: -0.034%,–
O=c1c2ccc(Cl)cc2[nH]c(=S)n1CCC1=CCCCC1,–,"inconclusive: 23.1 µM [activator, single point]"

# Some of the entries so far, tab-delimited:
Compound	activity change, negative = inhibition	Potency
N/C(=N\OS(=O)(=O)c1ccccc1)c1cccnc1	–	inconclusive: 29.1 µM [activator, partial curve, poor fit]
COc1ccccc1COC(=O)N/C=C/c1ccco1	inactive: 4.05%	–
CCn1nc(C)cc1C(=O)Sc1ccc(C)cc1	inactive: 0.327%	–

# Later entries

Compound,"activity change, negative = inhibition",Potency
COc1ccc(/C=C2\SC(=S)N(Cc3cccnc3)C2=O)cc1C,–,"inconclusive: 29.1 µM [activator, partial curve, poor fit]"
Nc1nc2sc3c(c2c(=O)s1)CCCC3,–,"inconclusive: 18.4 µM [activator, partial curve]"
Cc1cc(C(=O)OCC(=O)Nc2cccc(S(=O)(=O)N(C)C)c2)c2ccccc2n1,inactive: -9.99%,–
O=C(NCC1CCCO1)c1cc2c(s1)CCC2 (stereo unspecified),–,"inconclusive: 16.4 µM [activator, partial curve]"
Cc1nnc(SCc2cc(=O)[nH]c(/N=C(\N)Nc3ccccc3Sc3ccccc3)n2)s1,inactive: -2.85%,–
COc1ccc(-c2[nH]c(-c3ccccc3)nc2SCC(=O)NCc2ccco2)cc1OC,–,"inconclusive: 18.4 µM [inhibitor, single point]"
COc1cc(OC)cc(C(=O)Oc2c(CN3CCOCC3)cc(Cl)c3cccnc23)c1,–,active: 16.4 µM
N#Cc1c(CSCC(=O)O)cc(=O)n2c1[nH]c1ccccc12,inactive: -9.02%,–
CCc1ccc[n+](-c2[nH]c(=O)sc2/C=N/N=C(\[O-])c2cccnc2)c1,inactive: 12.6%,–
COc1cc(C=O)ccc1OCc1ccc(Cl)nc1,–,"inconclusive: 16.4 µM [activator, partial curve]"
CC(=O)N1N=C(c2ccncc2)CC1c1ccccc1O (stereo unspecified),inactive: -8.17%,–
O=C(COC(=O)c1cccs1)Nc1nc(-c2ccccc2)cs1,–,"inconclusive: 16.4 µM [activator, single point]"
O=[N+]([O-])c1cc(Cl)cc2c1nc(NCCO)c1ccccc12,–,"inconclusive: 8.2 µM [inhibitor, partial curve, poor fit]"
COc1cc(/C=C2\CCc3c2nc2ccccc2c3C(=O)O)cc(OC)c1OC,–,"inconclusive: 23.1 µM [activator, partial curve]"
COc1cccc(/C=N/NC(=O)c2cccc([N+](=O)[O-])c2)c1OS(=O)(=O)c1ccc(C)cc1,–,"inconclusive: 6.51 µM [inhibitor, single point]"
CCOc1cc(C2C3=C(CC(C)(C)CC3=O)OC3=C2C(=O)CC(C)(C)C3)cc([N+](=O)[O-])c1O,inactive: -8.96%,–
CCOc1cc(/C=C2\COc3ccccc3C2=O)cc(Br)c1OCC(=O)N(C)C,–,"inconclusive: 29.1 µM [inhibitor, single point]"
N/C(=N\N=C\c1cccc([N+](=O)[O-])c1)c1nonc1N,–,"inconclusive: 20.6 µM [activator, partial curve]"
CC(=O)c1ccc(OCCCC(=O)Nc2nnc(C3CC3)s2)cc1,inactive: 8.21%,–
O=C(O)COCc1nc2ccccc2s1,inactive: -6.03%,–
CCOC(=O)C1C(=O)CC(O)(c2ccccc2)CC1c1ccccc1 (stereo unspecified),–,"inconclusive: 35.5 µM [inhibitor, single point]"
CCOc1ccc(Nc2ncnc3c2cnn3Cc2ccccc2)cc1,–,"inconclusive: 16.4 µM [inhibitor, partial curve, poor fit]"
O=C(CSc1nnc(Cc2cccs2)n1CCc1ccccc1)N1CCCc2ccccc21,–,active: 20.6 µM
Cc1ccc(S(=O)(=O)Oc2ccccc2/C=N/N=C(N)N)cc1,inactive: -3.65%,–

Compound,"activity change, negative = inhibition",Potency
CSCCC1NC(=O)N(CC(=O)Nc2c(Cl)cc(Cl)cc2Cl)C1=O (stereo unspecified),inactive: -0.0606%,–
O=[N+]([O-])c1ccc(S(=O)(=O)Nc2ccc(-c3ccc(N4CCOCC4)nn3)cc2)cc1,–,"inconclusive: 29.1 µM [activator, partial curve, poor fit]"
COc1cccc(CNc2nc3nc(C)cc(C)n3n2)c1,–,"inconclusive: 20.6 µM [activator, single point]"
O=C(NCCCN1CCOCC1)c1cc(-c2ccccc2F)no1,–,"inconclusive: 29.1 µM [activator, single point]"
Cc1ccc(CNc2nc(N)c([N+](=O)[O-])c(NCc3ccccc3)n2)cc1,inactive: 1.36%,–
Fc1ccc(OCCn2cnc(Cl)c2Cl)cc1,–,"inconclusive: 29.1 µM [activator, partial curve, poor fit]"
CC(=O)c1ccc(Nc2nc(NCCO)nc(OC(C(F)(F)F)C(F)(F)F)n2)cc1,–,"inconclusive: 20.6 µM [inhibitor, single point]"
O=C(NCc1ccccc1)C1COc2ccccc2O1 (stereo unspecified),–,"inconclusive: 20.6 µM [activator, partial curve]"
O=C(c1cccs1)N1CCCN(c2ncnc3scc(-c4ccccc4)c23)CC1,–,"inconclusive: 23.1 µM [inhibitor, single point]"
Cn1c(=O)cc(OCC(=O)NCc2cccs2)c2ccccc21,–,"inconclusive: 29.1 µM [activator, single point]"
N#Cc1ccc(CO/N=C/c2ccccc2)cc1,–,"inconclusive: 18.3 µM [activator, partial curve]"
COC(=O)c1c(NC(=O)CN2CCN(Cc3ccc4c(c3)OCO4)CC2)sc(C)c1C,–,active: 8.2 µM
Cc1ccc(C)c2[nH]c(=O)c(CCNC(=O)c3ccc4c(c3)OCO4)cc12,–,"inconclusive: 16.4 µM [inhibitor, partial curve, poor fit]"
O=C(CCN1C(=O)S/C(=C\c2ccc(F)cc2)C1=O)Nc1ccc(O)cc1C(=O)O,inactive: 0.605%,–
COC(=O)[C@@]1(Cc2ccccc2)[C@H]2C(=O)N(Cc3ccccc3)C(=O)[C@H]2[C@H]2CN=C(SCc3ccc(C#N)cc3)N21,inactive: -21.8%,–
O=S(=O)(/N=C(/Nc1nc2ccccc2s1)c1ccccc1)c1ccccc1,–,"inconclusive: 18.3 µM [activator, partial curve]"
Cc1cccc(OCCCCn2c(CO)nc3ccccc32)c1,inactive: -4.06%,–
Cc1ccc(S(=O)(=O)Nc2ccc3c(c2)CC(=O)N([C@H](C)CO)C[C@@H](C)[C@H](CN(C)Cc2ccc(-c4ccccc4)cc2)O3)cc1,–,"inconclusive: 18.3 µM [inhibitor, single point]"
CC(=O)Nc1nnc(Cc2ccccc2)s1,–,"inconclusive: 11.6 µM [activator, single point]"
FC(F)Oc1ccc(C2N=C(c3ccccc3)NO2)cc1 (stereo unspecified),–,"inconclusive: 10.3 µM [activator, partial curve]"
COc1ccc(NC(=O)CSc2nnnn2C2CCCC2)c(OC)c1,inactive: 1.73%,–
Cc1ccc(-c2cn3nc(C)c(C)nc3n2)cc1,–,"inconclusive: 0.141 µM [activator, full curve, poor fit]"
CC(C)NC(=O)N(C)C[C@H]1Oc2ccc(NC(=O)c3ccncc3)cc2C(=O)N([C@H](C)CO)C[C@@H]1C,–,"inconclusive: 11.6 µM [activator, partial curve, poor fit]"
